Results from publication doi:10.1101/2025.03.31.25324995.
These are yes or no findings as the source states them, for the method shown. In cells and extracts the contact can be indirect. Here binding means that the protein was enriched with, or labelled near, the bait; the list need not be complete.

Chains of the proteins cited; added tags and fusions are not shown.
UniProt P06733: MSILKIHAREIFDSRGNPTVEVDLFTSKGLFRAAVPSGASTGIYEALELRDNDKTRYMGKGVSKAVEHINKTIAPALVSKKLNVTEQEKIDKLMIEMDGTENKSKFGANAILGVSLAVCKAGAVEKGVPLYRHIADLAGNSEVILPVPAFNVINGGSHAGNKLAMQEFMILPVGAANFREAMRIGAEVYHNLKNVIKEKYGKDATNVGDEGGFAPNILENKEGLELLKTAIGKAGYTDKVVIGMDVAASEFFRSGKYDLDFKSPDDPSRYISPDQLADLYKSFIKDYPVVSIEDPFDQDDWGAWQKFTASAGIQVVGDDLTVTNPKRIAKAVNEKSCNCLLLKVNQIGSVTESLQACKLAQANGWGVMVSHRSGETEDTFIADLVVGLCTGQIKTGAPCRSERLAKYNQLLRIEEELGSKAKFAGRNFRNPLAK
UniProt Q7Z6E9: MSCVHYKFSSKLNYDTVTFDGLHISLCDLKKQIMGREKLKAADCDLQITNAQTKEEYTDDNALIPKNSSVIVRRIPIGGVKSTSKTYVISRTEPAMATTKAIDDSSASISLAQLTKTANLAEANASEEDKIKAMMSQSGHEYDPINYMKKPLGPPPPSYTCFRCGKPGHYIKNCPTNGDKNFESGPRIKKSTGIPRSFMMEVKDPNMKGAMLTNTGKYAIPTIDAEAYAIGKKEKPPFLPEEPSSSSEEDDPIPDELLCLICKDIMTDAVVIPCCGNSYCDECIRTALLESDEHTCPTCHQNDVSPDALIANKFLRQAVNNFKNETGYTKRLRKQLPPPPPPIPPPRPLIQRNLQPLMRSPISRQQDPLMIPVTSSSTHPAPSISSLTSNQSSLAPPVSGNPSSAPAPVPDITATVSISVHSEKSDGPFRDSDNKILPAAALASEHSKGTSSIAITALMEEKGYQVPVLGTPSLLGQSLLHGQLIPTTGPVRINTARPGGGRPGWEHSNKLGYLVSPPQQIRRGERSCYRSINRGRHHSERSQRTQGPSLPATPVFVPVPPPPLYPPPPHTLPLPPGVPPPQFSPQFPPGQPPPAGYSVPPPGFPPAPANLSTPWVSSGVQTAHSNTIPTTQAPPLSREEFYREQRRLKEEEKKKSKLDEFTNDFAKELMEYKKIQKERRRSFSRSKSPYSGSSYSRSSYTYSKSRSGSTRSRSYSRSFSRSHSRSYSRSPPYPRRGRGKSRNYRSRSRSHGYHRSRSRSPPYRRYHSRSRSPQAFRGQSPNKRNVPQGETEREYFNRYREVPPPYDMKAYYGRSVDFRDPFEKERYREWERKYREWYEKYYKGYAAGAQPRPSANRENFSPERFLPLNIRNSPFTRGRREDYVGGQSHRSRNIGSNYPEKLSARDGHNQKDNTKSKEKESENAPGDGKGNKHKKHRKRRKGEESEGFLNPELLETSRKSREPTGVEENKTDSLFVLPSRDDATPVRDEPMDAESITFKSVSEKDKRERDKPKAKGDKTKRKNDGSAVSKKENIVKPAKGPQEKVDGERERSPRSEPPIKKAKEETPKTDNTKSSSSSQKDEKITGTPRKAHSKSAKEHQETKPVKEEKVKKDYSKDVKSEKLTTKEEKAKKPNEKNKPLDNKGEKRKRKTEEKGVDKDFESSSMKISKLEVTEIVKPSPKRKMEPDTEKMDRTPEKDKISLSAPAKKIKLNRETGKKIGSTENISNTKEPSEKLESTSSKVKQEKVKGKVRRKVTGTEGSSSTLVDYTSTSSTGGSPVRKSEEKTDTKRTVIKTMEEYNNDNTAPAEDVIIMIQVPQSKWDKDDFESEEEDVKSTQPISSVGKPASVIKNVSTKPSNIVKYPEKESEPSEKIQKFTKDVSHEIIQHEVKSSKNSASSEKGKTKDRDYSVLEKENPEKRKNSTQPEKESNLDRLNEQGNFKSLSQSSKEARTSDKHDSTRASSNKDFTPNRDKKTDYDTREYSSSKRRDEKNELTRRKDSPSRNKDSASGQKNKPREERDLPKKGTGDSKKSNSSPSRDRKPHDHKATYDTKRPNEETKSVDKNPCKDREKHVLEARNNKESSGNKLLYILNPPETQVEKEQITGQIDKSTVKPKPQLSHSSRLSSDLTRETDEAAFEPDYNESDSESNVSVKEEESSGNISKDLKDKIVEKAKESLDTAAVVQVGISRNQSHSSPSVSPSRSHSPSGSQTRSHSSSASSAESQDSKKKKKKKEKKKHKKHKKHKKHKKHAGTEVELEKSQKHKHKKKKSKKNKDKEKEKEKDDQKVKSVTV

Molecular target: ENO1 (alpha-enolase), endogenous in AC16 cardiomyocytes (human (endogenous in AC16)) (UniProt P06733)
Test: affinity purification with mass spectrometry

RBBP6, endogenous in AC16 nuclear fraction (from UniProt Q7Z6E9 1-1792)
binding: binds

B1: NACC1, endogenous in AC16 nuclear fraction (protein, UniProt Q96RE7 1-527)
chain: MAQTLQMEIPNFGNSILECLNEQRLQGLYCDVSVVVKGHAFKAHRAVLAASSSYFRDLFNNSRSAVVELPAAVQPQSFQQILSFCYTGRLSMNVGDQFLLMYTAGFLQIQEIMEKGTEFFLKVSSPSCDSQGLHAEEAPSSEPQSPVAQTSGWPACSTPLPLVSRVKTEQQESDSVQCMPVAKRLWDSGQKEAGGGGNGSRKMAKFSTPDLAANRPHQPPPPQQAPVVAAAQPAVAAGAGQPAGGVAAAGGVVSGPSTSERTSPGTSSAYTSDSPGSYHNEEDEEEDGGEEGMDEQYRQICNMYTMYSMMNVGQTAEKVEALPEQVAPESRNRIRVRQDLASLPAELINQIGNRCHPKLYDEGDPSEKLELVTGTNVYITRAQLMNCHVSAGTRHKVLLRRLLASFFDRNTLANSCGTGIRSSTNDPRRKPLDSRVLHAVKYYCQNFAPNFKESEMNAIAADMCTNARRVVRKSWMPKVKVLKAEDDAYTTFISETGKIEPDMMGVEHGFETASHEGEAGPSAEALQ
binding: binds
